PubChem BioAssay AID1259308 – NCATS | 2017
The whole screen tested about 59,000 reagents; shown is an unselected part. About 1,510 of them (2.6%) count as active. 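Calls use total luciferase alone and ignore viability, so some active siRNAs may act by altering cell number.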 The numbers tell different reagents against one gene apart.

- Purpose: 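Knock-downs that increase output of a recombinant reporter protein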 (primary screen)
- Cell system: human HEK293 embryonic kidney cells stably expressing firefly luciferase (HEK-CMV-Luc2-Hygro)
- Reagents: single siRNA against human genes, 0.8 pmol siRNA per well
- Time to read-out: 72 h
- Measured: 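Reporter luminescence and viable-cell signal on separate replicate plates, given as percent of non-targeting control and median/MAD z-scores, plus per-cell luciferase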
- Direction: total luciferase, z-score and total luciferase, % of control: higher = more reporter protein produced; luciferase per cell, z-score: higher = more reporter output per viable cell; viable cells, % of control: higher = more viable cells
- Hit rule: 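An siRNA counts as active if its total luciferase robust z-score exceeds 3; genes with two or more such siRNAs out of three were retested with fresh siRNAs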
- Meaning of the calls: active = raised luciferase; inactive = no rise

Target gene	siRNA no.	total luciferase, z-score	total luciferase, % of control	luciferase per cell, z-score	viable cells, % of control	outcome
PDIA5 (protein disulfide isomerase family A member 5)	1	1.49	112	0.493	110	inactive
PDIA5 (protein disulfide isomerase family A member 5)	2	-1.53	51.5	-1.45	84.2	inactive
PDIA5 (protein disulfide isomerase family A member 5)	3	-0.342	75.1	-0.683	100	inactive
SNAI1 (snail family transcriptional repressor 1)	1	-0.926	63.5	-0.0311	71.5	inactive
SNAI1 (snail family transcriptional repressor 1)	2	0.293	87.7	-0.605	115	inactive
SNAI1 (snail family transcriptional repressor 1)	3	-0.831	65.4	-0.714	88.1	inactive
PHF12 (PHD finger protein 12)	1	-0.0849	80.2	-0.0302	90.3	inactive
PHF12 (PHD finger protein 12)	2	-0.693	68.1	0.3	70.3	inactive
PHF12 (PHD finger protein 12)	3	0.676	95.3	1.25	76.7	inactive
STEAP3 (STEAP3 metalloreductase)	1	-1.03	61.5	-1.65	106	inactive
STEAP3 (STEAP3 metalloreductase)	2	-0.909	63.8	-0.967	92	inactive
STEAP3 (STEAP3 metalloreductase)	3	1.73	116	1.15	96.1	inactive
TBC1D26 (TBC1 domain family member 26)	1	1.05	103	1.86	70.4	inactive
TBC1D26 (TBC1 domain family member 26)	2	4.58	173	3.12	85.1	active
TBC1D26 (TBC1 domain family member 26)	3	0.971	101	0.311	104	inactive
MIR3171HG (MIR3171 host gene)	1	-0.606	69.8	-0.579	90.9	inactive
MIR3171HG (MIR3171 host gene)	2	-0.707	67.8	-0.816	94	inactive
MIR3171HG (MIR3171 host gene)	3	0.74	96.6	0.633	91.4	inactive
ACY3 (aminoacylase 3)	1	-1.31	55.8	-0.355	68.5	inactive
ACY3 (aminoacylase 3)	2	-2.35	35.1	-2.44	74.5	inactive
ACY3 (aminoacylase 3)	3	0.0843	83.6	-0.353	102	inactive
R3HCC1L (R3H domain and coiled-coil containing 1 like)	1	0.824	98.3	1.39	76.1	inactive
R3HCC1L (R3H domain and coiled-coil containing 1 like)	2	0.607	94	0.29	97.3	inactive
R3HCC1L (R3H domain and coiled-coil containing 1 like)	3	0.0476	82.8	0.42	82.9	inactive
CST7 (cystatin F)	1	0.0106	82.1	-0.546	106	inactive
CST7 (cystatin F)	2	-0.123	79.4	-0.0678	90.4	inactive
CST7 (cystatin F)	3	0.818	98.2	-0.144	114	inactive
RPL23AP14 (ribosomal protein L23a pseudogene 14)	1	-0.729	67.4	-0.776	92.4	inactive
RPL23AP14 (ribosomal protein L23a pseudogene 14)	2	0.845	98.7	1.19	80.5	inactive
RPL23AP14 (ribosomal protein L23a pseudogene 14)	3	-2.52	31.8	-1.15	48	inactive
SIRPB1 (signal regulatory protein beta 1)	1	-0.0381	81.1	0.161	86.9	inactive
SIRPB1 (signal regulatory protein beta 1)	2	1.93	120	1.47	91.3	inactive
SIRPB1 (signal regulatory protein beta 1)	3	-2.43	33.5	-1.25	52	inactive
MGARP (mitochondria localized glutamic acid rich protein)	1	-0.143	79.1	-0.0615	89.8	inactive
MGARP (mitochondria localized glutamic acid rich protein)	2	0.412	90.1	-0.246	107	inactive
MGARP (mitochondria localized glutamic acid rich protein)	3	-0.533	71.3	-0.508	91.1	inactive
SCAI (suppressor of cancer cell invasion)	1	-0.0317	81.3	-0.567	105	inactive
SCAI (suppressor of cancer cell invasion)	2	0.45	90.8	0.07	99.6	inactive
SCAI (suppressor of cancer cell invasion)	3	-0.274	76.4	-0.172	89.4	inactive
